These are yes or no findings as the source states them, for the method shown. In cells and extracts the contact can be indirect. For some assays here: Binding can be weak; no strength is given. For some assays here: Sequences can lack the tags named with a protein.

The target of assay [1] is GST-tagged β1 integrin cytoplasmic tail. Briefly: pull-down; 5 µg recombinant GST-β integrin tails incubated overnight with 500 µg IEC lysate (50 mM Tris pH 7.4, 150 mM NaCl, 1 mM EDTA, 1% Triton-X-100), precipitated with glutathione beads, western blot for Kindlin-1 and GST; also done with keratinocyte lysates; only the target purified.
Assay [2] deals with GST-tagged β1 integrin cytoplasmic tail Y800A. The assay is described as above.
For assay [3], the target named is GST-tagged β1 integrin cytoplasmic tail Y788A. The assay is described as above.
Assay [4] has as its target GST-tagged β1 integrin cytoplasmic tail. Briefly: pull-down; direct binding assay: recombinant His-tagged Kindlin-1 C-terminus co-precipitated with GST-tagged β1 integrin cytoplasmic tails; both purified.
Assay [5] has as its target GST-tagged β1 integrin cytoplasmic tail Y800A. The description is as above.

B1: Kindlin-1 (protein, UniProt P59113 1-677)
chain: MLSSGDLTSASWELVVRVDHANGEQQTEITLRVSGDLHIGGVMLKLVEQMNIAQDWSDYALWWEQKRCWLLKTHWTLDKCGVQADANLLFTPQHKMLRLRLPNAKTVRLRVSFSAVVFKAVADICKVLNIRRPEELSLLKPSSDYCKKKKKKEKNSKEPVIEDILNLESSSTSSGSPVSPGLYSKTMTPTYDPINGTPALSTMTWFGDSPLTEQNCSVLAFSQPPPSPDVLADMFQPRSLVDKAKMNAGWLDSSRSLMEQSIQEDEQLQLRFKYYTFFDLNPKYDAVRINQLYEQARWAVLLEEIDCTEEEMLIFAALQYHISKLSQCAEIQDFATKSEVDEVEAALSSLEVTLEGGKADNTLEDITDIPKLADYLKLFRPKKLMLKACKQYWFVFKDTSIAYFKNKELEQGEPIEKLNLRGCEIVPDVNVSGRKFGIKLLIPVADGMNEVYLRCDHEDQYARWMAACILASKGKTMADSSYQPEVISILSFLKMKNRNSSPLVASSLENMDMNPECLVSPCCAKKHKSKQLAARILEAHHNVAQMPLVEAKLQFIQAWQSLPEFGLTYYLVRFKGSKKDDILGVAYNRLIRIDAVTGIPVTTWRFANMKQWNVNWEIRQVAIEFDQNVSIAFTCLSADCKIVHEYIGGYIFLSTRSKDQNETLDEDLFHKLTGGQD
Turning to B1, the results for the binding entry in assay [1], in assay [2] and in assay [3] were “binds”, “no binding” and “binds”, respectively.

B2: His-tagged C-terminal FERM domain of Kindlin-1 (aa 471–677) (domain or fragment, UniProt P59113 471-677)
chain: ASKGKTMADSSYQPEVISILSFLKMKNRNSSPLVASSLENMDMNPECLVSPCCAKKHKSKQLAARILEAHHNVAQMPLVEAKLQFIQAWQSLPEFGLTYYLVRFKGSKKDDILGVAYNRLIRIDAVTGIPVTTWRFANMKQWNVNWEIRQVAIEFDQNVSIAFTCLSADCKIVHEYIGGYIFLSTRSKDQNETLDEDLFHKLTGGQD
With B2, the binding entry is on record as “binds” in assay [4] and “no binding” in assay [5].
